From PMC11040761 come the findings set out here.

These are yes or no findings as the source states them, for the method shown. Binding seen in cells or lysates may run through a third protein. Some results given as binding are weak or reduced against the parent protein; the word gives no strength.

In this assay the target is T1, 3-hydroxy-3-methylglutaryl-Coa Synthase 2 (HMGCS2) (human) (UniProt P54868).
T1 sequence: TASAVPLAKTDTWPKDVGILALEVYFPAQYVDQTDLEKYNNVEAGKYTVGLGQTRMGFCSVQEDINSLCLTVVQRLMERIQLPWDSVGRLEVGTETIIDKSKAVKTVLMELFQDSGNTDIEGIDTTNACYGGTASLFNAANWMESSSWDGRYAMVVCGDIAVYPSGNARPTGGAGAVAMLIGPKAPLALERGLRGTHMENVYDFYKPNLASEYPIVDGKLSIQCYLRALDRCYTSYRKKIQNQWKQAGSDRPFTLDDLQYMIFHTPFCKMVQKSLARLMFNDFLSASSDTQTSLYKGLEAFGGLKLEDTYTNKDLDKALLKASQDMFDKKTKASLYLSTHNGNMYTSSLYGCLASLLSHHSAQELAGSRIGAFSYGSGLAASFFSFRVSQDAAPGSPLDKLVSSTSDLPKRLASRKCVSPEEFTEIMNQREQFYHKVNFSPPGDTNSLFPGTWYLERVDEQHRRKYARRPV
In words: co-IP; total extracts of A549 cells with or without ectopic HMGCS2, co-IP lysis buffer; rabbit anti-HMGCS2 at 4 °C overnight, Protein G Agarose 4 h, three washes; WB detection.

B1: PPARα (protein, UniProt Q07869 1-468)
chain: MVDTESPLCPLSPLEAGDLESPLSEEFLQEMGNIQEISQSIGEDSSGSFGFTEYQYLGSCPGSDGSVITDTLSPASSPSSVTYPVVPGSVDESPSGALNIECRICGDKASGYHYGVHACEGCKGFFRRTIRLKLVYDKCDRSCKIQKKNRNKCQYCRFHKCLSVGMSHNAIRFGRMPRSEKAKLKAEILTCEHDIEDSETADLKSLAKRIYEAYLKNFNMNKVKARVILSGKASNNPPFVIHDMETLCMAEKTLVAKLVANGIQNKEAEVRIFHCCQCTSVETVTELTEFAKAIPGFANLDLNDQVTLLKYGVYEAIFAMLSSVMNKDGMLVAYGNGFITREFLKSLRKPFCDIMEPKFDFAMKFNALELDDSDISLFVAAIICCGDRPGLLNVGHIEKMQEGIVHVLRLHLQSNHPDDIFLFPKLLQKMADLRQLVTEHAQLVQIIKKTESDAALHPLLQEIYRDMY
B1: the binding entry is given as “binds”.
